Results are given in words; binding and its absence hold for the method and conditions named. Some binding calls cover weakened binding; strength is not graded here. For part of these data: Sequences can lack the tags named with a protein.
T1: phyB-GFP (Arabidopsis thaliana), P14713
T1 chain: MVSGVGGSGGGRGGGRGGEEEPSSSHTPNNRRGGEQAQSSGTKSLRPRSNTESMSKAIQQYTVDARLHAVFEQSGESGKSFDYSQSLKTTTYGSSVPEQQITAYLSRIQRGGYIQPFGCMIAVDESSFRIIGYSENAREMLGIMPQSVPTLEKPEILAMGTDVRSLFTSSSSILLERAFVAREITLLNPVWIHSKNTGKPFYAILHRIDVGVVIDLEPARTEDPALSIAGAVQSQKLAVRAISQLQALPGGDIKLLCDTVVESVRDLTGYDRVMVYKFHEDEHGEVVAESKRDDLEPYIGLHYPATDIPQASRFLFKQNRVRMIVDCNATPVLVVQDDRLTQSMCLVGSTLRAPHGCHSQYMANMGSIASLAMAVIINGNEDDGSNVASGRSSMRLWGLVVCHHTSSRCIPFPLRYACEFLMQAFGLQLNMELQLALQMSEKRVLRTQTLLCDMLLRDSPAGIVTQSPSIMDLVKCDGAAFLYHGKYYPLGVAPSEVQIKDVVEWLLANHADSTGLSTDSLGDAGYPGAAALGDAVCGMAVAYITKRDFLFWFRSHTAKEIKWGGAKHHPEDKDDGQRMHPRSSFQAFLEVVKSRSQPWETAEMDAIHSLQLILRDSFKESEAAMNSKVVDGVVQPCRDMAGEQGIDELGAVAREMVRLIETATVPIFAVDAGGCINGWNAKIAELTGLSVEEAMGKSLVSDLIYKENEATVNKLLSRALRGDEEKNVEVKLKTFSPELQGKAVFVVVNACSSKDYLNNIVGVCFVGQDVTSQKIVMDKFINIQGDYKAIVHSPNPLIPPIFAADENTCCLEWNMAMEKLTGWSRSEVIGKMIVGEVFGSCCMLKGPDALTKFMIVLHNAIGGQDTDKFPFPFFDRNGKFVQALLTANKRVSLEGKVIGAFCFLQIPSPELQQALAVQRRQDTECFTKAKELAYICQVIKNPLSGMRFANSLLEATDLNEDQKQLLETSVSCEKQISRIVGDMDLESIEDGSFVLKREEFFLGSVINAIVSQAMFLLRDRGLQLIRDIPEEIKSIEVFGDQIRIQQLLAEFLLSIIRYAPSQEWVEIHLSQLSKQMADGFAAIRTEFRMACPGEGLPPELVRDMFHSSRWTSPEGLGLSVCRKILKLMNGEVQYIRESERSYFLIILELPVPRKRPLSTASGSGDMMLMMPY


Molecular target: T1, phyB-GFP (Arabidopsis thaliana), P14713
Test: fluorescence-activated particle sorting of phyB-GFP photobodies with LC-MS/MS; photobodies sorted by green fluorescence (Alexa Fluor 488 anti-GFP antibody) from sonicated nuclei of PHYB-GFP leaves; proteins enriched over the pre-sorted nuclear extract by more than 2σ
Conditions: remark: other sources report otherwise

binding	Binder
binds	CONSTITUTIVELY PHOTOMORPHOGENIC 1 (COP1), P43254 1-675 (protein) MEEISTDPVVPAVKPDPRTSSVGEGANRHENDDGGSGGSEIGAPDLDKDLLCPICMQIIKDAFLTACGHSFCYMCIITHLRNKSDCPCCSQHLTNNQLYPNFLLDKLLKKTSARHVSKTASPLDQFREALQRGCDVSIKEVDNLLTLLAERKRKMEQEEAERNMQILLDFLHCLRKQKVDELNEVQTDLQYIKEDINAVERHRIDLYRARDRYSVKLRMLGDDPSTRNAWPHEKNQIGFNSNSLSIRGGNFVGNYQNKKVEGKAQGSSHGLPKKDALSGSDSQSLNQSTVSMARKKRIHAQFNDLQECYLQKRRQLADQPNSKQENDKSVVRREGYSNGLADFQSVLTTFTRYSRLRVIAEIRHGDIFHSANIVSSIEFDRDDELFATAGVSRCIKVFDFSSVVNEPADMQCPIVEMSTRSKLSCLSWNKHEKNHIASSDYEGIVTVWDVTTRQSLMEYEEHEKRAWSVDFSRTEPSMLVSGSDDCKVKVWCTRQEASVINIDMKANICCVKYNPGSSNYIAVGSADHHIHYYDLRNISQPLHVFSGHKKAVSYVKFLSNNELASASTDSTLRLWDVKDNLPVRTFRGHTNEKNFVGLTVNSEYLACGSETNEVYVYHKEITRPVTSHRFGSPDMDDAEEEAGSYFISAVCWKSDSPTMLTANSQGTIKVLVLAA

Molecular target: phyB-GFP (Arabidopsis thaliana) (UniProt P14713)
Test: as above
Conditions: not given

Binder	binding
PCH1-like (PCHL) (protein, UniProt O65680 1-279) MSEHFMGLSKIKTESCVHGYESAWLSRWTPSNKNAKEIHLPEDGHLLKESTGPMKLKGKMLTLFPNLDSPVQSVDVIPDMNKEPPIVADRENSIDGEEEEASSQATQSKNVEHFLNNNTNLLRECKRIWSDSETNSRSQVKRLKTNAADNRGNETKNMMVFEEGPSGKKVNHFFHSIFGMTNLGSRRYQKFSTSQNKNLNMGEAEDVNPWIQRWCKRKAADVHEPRGGQEVNSNGTVLEKQQFPSIAAMAMMRKALSGINPTGCRKTNSLFVWNAEDLS	binds
GAPCP1 (enzyme, UniProt Q9SAJ6 70-422) TATEVPSAVRRSSSSGKTKVGINGFGRIGRLVLRIATSRDDIEVVAVNDPFIDAKYMAYMLKYDSTHGNFKGSINVIDDSTLEINGKKVNVVSKRDPSEIPWADLGADYVVESSGVFTTLSKAASHLKGGAKKVIISAPSADAPMFVVGVNEHTYQPNMDIVSNASCTTNCLAPLAKVVHEEFGILEGLMTTVHATTATQKTVDGPSMKDWRGGRGASQNIIPSSTGAAKAVGKVLPELNGKLTGMAFRVPTSNVSVVDLTCRLEKGASYEDVKAAIKHASEGPLKGILGYTDEDVVSNDFVGDSRSSIFDANAGIGLSKSFVKLVSWYDNEWGYSNRVLDLIEHMALVAASH	no binding

The remaining lines, values ahead:

binding	Binder
binds	phyC (receptor, UniProt P14714 1-1111) MSSNTSRSCSTRSRQNSRVSSQVLVDAKLHGNFEESERLFDYSASINLNMPSSSCEIPSSAVSTYLQKIQRGMLIQPFGCLIVVDEKNLKVIAFSENTQEMLGLIPHTVPSMEQREALTIGTDVKSLFLSPGCSALEKAVDFGEISILNPITLHCRSSSKPFYAILHRIEEGLVIDLEPVSPDEVPVTAAGALRSYKLAAKSISRLQALPSGNMLLLCDALVKEVSELTGYDRVMVYKFHEDGHGEVIAECCREDMEPYLGLHYSATDIPQASRFLFMRNKVRMICDCSAVPVKVVQDKSLSQPISLSGSTLRAPHGCHAQYMSNMGSVASLVMSVTINGSDSDEMNRDLQTGRHLWGLVVCHHASPRFVPFPLRYACEFLTQVFGVQINKEAESAVLLKEKRILQTQSVLCDMLFRNAPIGIVTQSPNIMDLVKCDGAALYYRDNLWSLGVTPTETQIRDLIDWVLKSHGGNTGFTTESLMESGYPDASVLGESICGMAAVYISEKDFLFWFRSSTAKQIKWGGARHDPNDRDGKRMHPRSSFKAFMEIVRWKSVPWDDMEMDAINSLQLIIKGSLQEEHSKTVVDVPLVDNRVQKVDELCVIVNEMVRLIDTAAVPIFAVDASGVINGWNSKAAEVTGLAVEQAIGKPVSDLVEDDSVETVKNMLALALEGSEERGAEIRIRAFGPKRKSSPVELVVNTCCSRDMTNNVLGVCFIGQDVTGQKTLTENYSRVKGDYARIMWSPSTLIPPIFITNENGVCSEWNNAMQKLSGIKREEVVNKILLGEVFTTDDYGCCLKDHDTLTKLRIGFNAVISGQKNIEKLLFGFYHRDGSFIEALLSANKRTDIEGKVTGVLCFLQVPSPELQYALQVQQISEHAIACALNKLAYLRHEVKDPEKAISFLQDLLHSSGLSEDQKRLLRTSVLCREQLAKVISDSDIEGIEEGYVELDCSEFGLQESLEAVVKQVMELSIERKVQISCDYPQEVSSMRLYGDNLRLQQILSETLLSSIRFTPALRGLCVSFKVIARIEAIGKRMKRVELEFRIIHPAPGLPEDLVREMFQPLRKGTSREGLGLHITQKLVKLMERGTLRYLRESEMSAFVILTEFPLI
binds	phyE (receptor, UniProt P42498 1-1112) MGFESSSSAASNMKPQPQKSNTAQYSVDAALFADFAQSIYTGKSFNYSKSVISPPNHVPDEHITAYLSNIQRGGLVQPFGCLIAVEEPSFRILGLSDNSSDFLGLLSLPSTSHSGEFDKVKGLIGIDARTLFTPSSGASLSKAASFTEISLLNPVLVHSRTTQKPFYAILHRIDAGIVMDLEPAKSGDPALTLAGAVQSQKLAVRAISRLQSLPGGDIGALCDTVVEDVQRLTGYDRVMVYQFHEDDHGEVVSEIRRSDLEPYLGLHYPATDIPQAARFLFKQNRVRMICDCNATPVKVVQSEELKRPLCLVNSTLRAPHGCHTQYMANMGSVASLALAIVVKGKDSSKLWGLVVGHHCSPRYVPFPLRYACEFLMQAFGLQLQMELQLASQLAEKKAMRTQTLLCDMLLRDTVSAIVTQSPGIMDLVKCDGAALYYKGKCWLVGVTPNESQVKDLVNWLVENHGDDSTGLTTDSLVDAGYPGAISLGDAVCGVAAAGFSSKDYLLWFRSNTASAIKWGGAKHHPKDKDDAGRMHPRSSFTAFLEVAKSRSLPWEISEIDAIHSLRLIMRESFTSSRPVLSGNGVARDANELTSFVCEMVRVIETATAPIFGVDSSGCINGWNKKTAEMTGLLASEAMGKSLADEIVQEESRAALESLLCKALQGEEEKSVMLKLRKFGQNNHPDYSSDVCVLVNSCTSRDYTENIIGVCFVGQDITSEKAITDRFIRLQGDYKTIVQSLNPLIPPIFASDENACCSEWNAAMEKLTGWSKHEVIGKMLPGEVFGVFCKVKCQDSLTKFLISLYQGIAGDNVPESSLVEFFNKEGKYIEASLTANKSTNIEGKVIRCFFFLQIINKESGLSCPELKESAQSLNELTYVRQEIKNPLNGIRFAHKLLESSEISASQRQFLETSDACEKQITTIIESTDLKSIEEGKLQLETEEFRLENILDTIISQVMIILRERNSQLRVEVAEEIKTLPLNGDRVKLQLILADLLRNIVNHAPFPNSWVGISISPGQELSRDNGRYIHLQFRMIHPGKGLPSEMLSDMFETRDGWVTPDGLGLKLSRKLLEQMNGRVSYVREDERCFFQVDLQVKTMLGVESRGTEGSSSIK
binds	SUPPRESSOR OF PHYA-105 1 (SPA1) (protein, UniProt Q9SYX2 1-1029) MPVMERVAEETVATNNIQLKARVDDVPCNKLDARHNDMVIQSETANSDCPGSSAHRNVDLTKPPPPEEAAGAKLSVEELTLGNYRIVQGSNNTNVDSPRAGKFEHLYRLARGSAFRAGDGDLDSQPRDMDQMLSRIRQQLAGAPSERQNLKPFMSRRSDQNLEAFSERLRAAGENSIMNAPALISEGVQMKTPVSSSNFSQLLLKRAMKGKGVVGKNQETPPEFVSDQDLGSKEKKLDISKSPTPHDVLPLKSSPKGNGMVSHGDGNHSKSSIGISLREFLRSSYAKREKRHGLCLFRQLVELVDSAHSKRLFLLDLRPSLFTLVPSKKLRYIGNFGKNDLESDVDEDLNRRRPVVEESSSGGRDSKKRKMDLHLNSPGNQLQATSTGRPFKRKSPVIDLNMVDARNPDSCELQQQDYIKNLSVSSVSRKQSMSTWLEEQWYTCPEEINGEDIGEKSNIYALGVLLFELLCHCESGEMHAAMMADLRHRILPPTFLSKYPKEAGFCLWLLHPEPSSRPSARDILKSELICEDDSVKSTAAAEEISELLLHFLSSLEVQKKKKASKLLQDIQTLEDDIKEAERRYSSNVSLVRSHGAIEKRVQSSPLDEHCTTSSALFVPTANTDRLMSNIRQLEDAYFFMRSQINLSSSAATARSDKTLKDRDRCSENQNENQDMSTKGKSSDQLEVFFEGLCKFARYSKFETCGTIRSGDLLNSASVVCSLSFDPDEEHIAAAGISKKIKIFDFNAFMNESVGVHYPLVEMVNKSKLSCVCWNSYIKNYLASTDYDGVVQIWDAGTGQGFSQYTEHQKRAWSVDFSPSDPTKFVSGSDDCSVKLWSINEKRSLGTIWSPANVCCVQFSSYSNHLLAFGSADYKVYCYDLRYVKTPWCTLAGHEKAVSYVKFMDSETIVSASTDNSLKLWNLNKTNSSGLSPGACSLTYKGHTNQKNFVGLSVLDGYIACGSETNEVYSYYKSLPMPMTSYKFGSVDPISGNEYFDDNGQFVSSVCWRKKSNMLVAANSTGNMKLLKLV

Source: PMC10042835
